Reference: US20140045930A1, “ASSAY FOR ARGINYL HYDROXYLASE ACTIVITY” (priority 2011, published 2014)
For at least one compound, name, drawing or mass did not settle the structure.

Target: T1, YcfD (Escherichia coli, UniProt P27431)
T1 construct: hexa-His (N); made in house; host or cells: E. coli BL21 (DE3), pET28a
T1 sequence (P27431 1-373): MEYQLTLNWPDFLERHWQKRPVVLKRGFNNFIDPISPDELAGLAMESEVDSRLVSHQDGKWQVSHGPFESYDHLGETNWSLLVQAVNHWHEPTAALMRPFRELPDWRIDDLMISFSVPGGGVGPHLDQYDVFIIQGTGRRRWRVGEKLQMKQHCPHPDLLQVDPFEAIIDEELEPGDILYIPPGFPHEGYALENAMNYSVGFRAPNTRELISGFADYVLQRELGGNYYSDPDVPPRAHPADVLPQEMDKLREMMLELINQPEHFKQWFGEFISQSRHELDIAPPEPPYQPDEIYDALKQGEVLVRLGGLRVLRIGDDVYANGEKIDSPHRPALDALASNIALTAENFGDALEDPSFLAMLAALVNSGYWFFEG
Test: [14C] 2OG decarboxylation assay (2OG turnover without prime substrate)
Assay type: biochemical
Settings: no prime substrate

**Q.** `O=C1O[C@H]([C@@H](O)CO)C(O)=C1O` [ascorbate] was tested. Which “effect on YcfD catalyzed 2OG turnover” value did it give?
**A.** activity was stimulated
